Results deposited as PubChem BioAssay AID1224829 (NIAID, 2016).
Purpose: 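Genes needed for LPS-driven NF-kappaB p65 nuclear entry in mouse macrophages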 (follow-up of hits). Cells: mouse RAW264.7 G9 macrophage reporter cells. Knock-down reagent: single siRNA against mouse genes, 100 nM. Duration: 2 days of siRNA knock-down, then 40 min of LPS before fixing. Challenge: LPS (Salmonella minnesota R595) at 10 ng/ml. Measured: 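High-content images after 40 min LPS exposure; GFP-p65 nucleus to surrounding ring signal ratio, normalised to plate median and non-targeting control wells, expressed as z-score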. Scale: p65 translocation z-score: higher = more nuclear NF-kappaB p65 after LPS. Hit rule: 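Active means the replicate-mean z-score lies beyond plus or minus 2, in either direction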. Calls: active = changed p65 translocation (either direction); inactive = no clear change.
This is one part, drawn at random, of about 3,800 reagents tested. 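Calls cover raised and lowered translocation; gene median uses one vendor's three siRNAs; qiagen siRNAs acted more weakly than ambion siRNAs.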 Reagents against one gene are numbered here. Not all columns of the deposit are shown.

For Tnfrsf25 (GeneID 85030) #1, siRNA vendor or control pool ambion single siRNA, what does the deposit list?
p65 translocation z-score, replicate mean: 0.588; Outcome: inactive

With Tnfrsf25 (GeneID 85030) #2, siRNA vendor or control pool ambion single siRNA, what was measured?
p65 translocation z-score, replicate mean: -1.77; Outcome: inactive

How did the screen score Tnfrsf25 (GeneID 85030) #3, siRNA vendor or control pool ambion single siRNA?
p65 translocation z-score, replicate mean: -3.06; Outcome: active

For Tnfrsf25 (GeneID 85030) #4, siRNA vendor or control pool qiagen single siRNA, how do the results read?
p65 translocation z-score, replicate mean: 1.44; Outcome: inactive

Which result is listed for Tnfrsf25 (GeneID 85030) #5, siRNA vendor or control pool qiagen single siRNA?
p65 translocation z-score, replicate mean: 1.61; Outcome: inactive

Which result is listed for Tnfrsf25 (GeneID 85030) #6, siRNA vendor or control pool qiagen single siRNA?
p65 translocation z-score, replicate mean: -1.98; Outcome: inactive

For Slco2b1 (GeneID 101488) #1, siRNA vendor or control pool ambion single siRNA, what does the deposit list?
p65 translocation z-score, replicate mean: 3.11; Outcome: active

How did the screen score Slco2b1 (GeneID 101488) #2, siRNA vendor or control pool ambion single siRNA?
p65 translocation z-score, replicate mean: -0.853; Outcome: inactive

How did the screen score Slco2b1 (GeneID 101488) #3, siRNA vendor or control pool ambion single siRNA?
p65 translocation z-score, replicate mean: -1.38; Outcome: inactive

How did the screen score Slco2b1 (GeneID 101488) #4, siRNA vendor or control pool qiagen single siRNA?
p65 translocation z-score, replicate mean: 1.73; Outcome: inactive

With Slco2b1 (GeneID 101488) #5, siRNA vendor or control pool qiagen single siRNA, how do the results read?
p65 translocation z-score, replicate mean: 1.5; Outcome: inactive

For Slco2b1 (GeneID 101488) #6, siRNA vendor or control pool qiagen single siRNA, how do the results read?
p65 translocation z-score, replicate mean: -3.91; Outcome: active

How did the screen score Il17re (GeneID 57890) #1, siRNA vendor or control pool ambion single siRNA?
p65 translocation z-score, replicate mean: 0.224; Outcome: inactive

With Il17re (GeneID 57890) #2, siRNA vendor or control pool ambion single siRNA, how do the results read?
p65 translocation z-score, replicate mean: -0.06; Outcome: inactive

For Il17re (GeneID 57890) #3, siRNA vendor or control pool ambion single siRNA, what does the deposit list?
p65 translocation z-score, replicate mean: -5.15; Outcome: active

How did the screen score Il17re (GeneID 57890) #4, siRNA vendor or control pool qiagen single siRNA?
p65 translocation z-score, replicate mean: 0.119; Outcome: inactive

How did the screen score Il17re (GeneID 57890) #5, siRNA vendor or control pool qiagen single siRNA?
p65 translocation z-score, replicate mean: 1.63; Outcome: inactive

What did the screen give for Il17re (GeneID 57890) #6, siRNA vendor or control pool qiagen single siRNA?
p65 translocation z-score, replicate mean: -4.37; Outcome: active

For Ttc29 (GeneID 73301) #1, siRNA vendor or control pool ambion single siRNA, what was measured?
p65 translocation z-score, replicate mean: -1.63; Outcome: inactive

How did the screen score Ttc29 (GeneID 73301) #2, siRNA vendor or control pool ambion single siRNA?
p65 translocation z-score, replicate mean: -1.67; Outcome: inactive

What did the screen give for Ttc29 (GeneID 73301) #3, siRNA vendor or control pool ambion single siRNA?
p65 translocation z-score, replicate mean: -1.63; Outcome: inactive

Which result is listed for Ttc29 (GeneID 73301) #4, siRNA vendor or control pool qiagen single siRNA?
p65 translocation z-score, replicate mean: 3.68; Outcome: active

Which result is listed for Ttc29 (GeneID 73301) #5, siRNA vendor or control pool qiagen single siRNA?
p65 translocation z-score, replicate mean: 0.738; Outcome: inactive

Which result is listed for Ttc29 (GeneID 73301) #6, siRNA vendor or control pool qiagen single siRNA?
p65 translocation z-score, replicate mean: -1.87; Outcome: inactive

For Pla2g4a (GeneID 18783) #1, siRNA vendor or control pool ambion single siRNA, what does the deposit list?
p65 translocation z-score, replicate mean: 1.69; Outcome: inactive

What is on record for Pla2g4a (GeneID 18783) #2, siRNA vendor or control pool ambion single siRNA?
p65 translocation z-score, replicate mean: -2.8; Outcome: active

With Pla2g4a (GeneID 18783) #3, siRNA vendor or control pool ambion single siRNA, what was measured?
p65 translocation z-score, replicate mean: -9.13; Outcome: active

With Pla2g4a (GeneID 18783) #4, siRNA vendor or control pool qiagen single siRNA, how do the results read?
p65 translocation z-score, replicate mean: 0.717; Outcome: inactive

What is on record for Pla2g4a (GeneID 18783) #5, siRNA vendor or control pool qiagen single siRNA?
p65 translocation z-score, replicate mean: 0.287; Outcome: inactive

What did the screen give for Pla2g4a (GeneID 18783) #6, siRNA vendor or control pool qiagen single siRNA?
p65 translocation z-score, replicate mean: 2.15; Outcome: active

A stretch of the results above:
Ttc29 (GeneID 73301) #2, siRNA vendor or control pool ambion single siRNA: p65 translocation z-score, replicate mean = -1.67; Outcome = inactive
Ttc29 (GeneID 73301) #3, siRNA vendor or control pool ambion single siRNA: p65 translocation z-score, replicate mean = -1.63; Outcome = inactive
